Data reported in PMC6508535.
Results are given in words; binding and its absence hold for the method and conditions named. Binding seen in cells or lysates may run through a third protein. Here binding means that the protein was enriched with, or labelled near, the bait; the list need not be complete. Tags and fused reporters may be left off the sequences shown.

Molecular target: T1, AtELF3-HFC (Arabidopsis EARLY FLOWERING 3 with C-terminal His6-3xFlag tag) (Arabidopsis thaliana), O82804
T1 chain: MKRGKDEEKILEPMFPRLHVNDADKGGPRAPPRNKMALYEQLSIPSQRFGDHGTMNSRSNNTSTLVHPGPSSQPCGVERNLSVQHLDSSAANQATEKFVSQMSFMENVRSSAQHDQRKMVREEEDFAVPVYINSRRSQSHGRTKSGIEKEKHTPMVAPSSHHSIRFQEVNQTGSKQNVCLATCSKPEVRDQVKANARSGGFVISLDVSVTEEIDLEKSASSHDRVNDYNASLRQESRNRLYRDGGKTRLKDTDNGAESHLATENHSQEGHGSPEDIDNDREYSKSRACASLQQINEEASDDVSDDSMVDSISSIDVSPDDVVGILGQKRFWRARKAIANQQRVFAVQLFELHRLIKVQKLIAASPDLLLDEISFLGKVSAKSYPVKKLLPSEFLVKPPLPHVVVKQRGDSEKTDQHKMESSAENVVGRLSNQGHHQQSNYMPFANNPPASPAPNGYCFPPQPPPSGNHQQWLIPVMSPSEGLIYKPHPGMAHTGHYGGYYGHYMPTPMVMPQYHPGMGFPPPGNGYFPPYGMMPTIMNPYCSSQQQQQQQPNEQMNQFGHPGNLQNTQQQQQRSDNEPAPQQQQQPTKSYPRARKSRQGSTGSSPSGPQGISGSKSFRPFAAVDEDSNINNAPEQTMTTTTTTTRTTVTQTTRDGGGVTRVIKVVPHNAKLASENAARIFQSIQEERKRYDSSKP
Assay: affinity purification with mass spectrometry; tandem affinity purification by the FLAG and His epitopes of ELF3-HFC from extracts of 10-day-old transgenic Arabidopsis seedlings (elf3-2 background), 12L:12D, harvested at ZT12; two replicates for each line
Details: remark: other sources report otherwise

B1: SPA1, Q9SYX2 1-1029 (protein)
chain: MPVMERVAEETVATNNIQLKARVDDVPCNKLDARHNDMVIQSETANSDCPGSSAHRNVDLTKPPPPEEAAGAKLSVEELTLGNYRIVQGSNNTNVDSPRAGKFEHLYRLARGSAFRAGDGDLDSQPRDMDQMLSRIRQQLAGAPSERQNLKPFMSRRSDQNLEAFSERLRAAGENSIMNAPALISEGVQMKTPVSSSNFSQLLLKRAMKGKGVVGKNQETPPEFVSDQDLGSKEKKLDISKSPTPHDVLPLKSSPKGNGMVSHGDGNHSKSSIGISLREFLRSSYAKREKRHGLCLFRQLVELVDSAHSKRLFLLDLRPSLFTLVPSKKLRYIGNFGKNDLESDVDEDLNRRRPVVEESSSGGRDSKKRKMDLHLNSPGNQLQATSTGRPFKRKSPVIDLNMVDARNPDSCELQQQDYIKNLSVSSVSRKQSMSTWLEEQWYTCPEEINGEDIGEKSNIYALGVLLFELLCHCESGEMHAAMMADLRHRILPPTFLSKYPKEAGFCLWLLHPEPSSRPSARDILKSELICEDDSVKSTAAAEEISELLLHFLSSLEVQKKKKASKLLQDIQTLEDDIKEAERRYSSNVSLVRSHGAIEKRVQSSPLDEHCTTSSALFVPTANTDRLMSNIRQLEDAYFFMRSQINLSSSAATARSDKTLKDRDRCSENQNENQDMSTKGKSSDQLEVFFEGLCKFARYSKFETCGTIRSGDLLNSASVVCSLSFDPDEEHIAAAGISKKIKIFDFNAFMNESVGVHYPLVEMVNKSKLSCVCWNSYIKNYLASTDYDGVVQIWDAGTGQGFSQYTEHQKRAWSVDFSPSDPTKFVSGSDDCSVKLWSINEKRSLGTIWSPANVCCVQFSSYSNHLLAFGSADYKVYCYDLRYVKTPWCTLAGHEKAVSYVKFMDSETIVSASTDNSLKLWNLNKTNSSGLSPGACSLTYKGHTNQKNFVGLSVLDGYIACGSETNEVYSYYKSLPMPMTSYKFGSVDPISGNEYFDDNGQFVSSVCWRKKSNMLVAANSTGNMKLLKLV
- binding: binds
